# No constants are given. Whether binding was seen depends on the method and setting. Some entries that bind do so weakly or less than the wild type.
# Amino acid sequences for entries named in this document (tags omitted). A change or cut given only in a name is not applied to a line headed by its entry.
# UniProt O43683: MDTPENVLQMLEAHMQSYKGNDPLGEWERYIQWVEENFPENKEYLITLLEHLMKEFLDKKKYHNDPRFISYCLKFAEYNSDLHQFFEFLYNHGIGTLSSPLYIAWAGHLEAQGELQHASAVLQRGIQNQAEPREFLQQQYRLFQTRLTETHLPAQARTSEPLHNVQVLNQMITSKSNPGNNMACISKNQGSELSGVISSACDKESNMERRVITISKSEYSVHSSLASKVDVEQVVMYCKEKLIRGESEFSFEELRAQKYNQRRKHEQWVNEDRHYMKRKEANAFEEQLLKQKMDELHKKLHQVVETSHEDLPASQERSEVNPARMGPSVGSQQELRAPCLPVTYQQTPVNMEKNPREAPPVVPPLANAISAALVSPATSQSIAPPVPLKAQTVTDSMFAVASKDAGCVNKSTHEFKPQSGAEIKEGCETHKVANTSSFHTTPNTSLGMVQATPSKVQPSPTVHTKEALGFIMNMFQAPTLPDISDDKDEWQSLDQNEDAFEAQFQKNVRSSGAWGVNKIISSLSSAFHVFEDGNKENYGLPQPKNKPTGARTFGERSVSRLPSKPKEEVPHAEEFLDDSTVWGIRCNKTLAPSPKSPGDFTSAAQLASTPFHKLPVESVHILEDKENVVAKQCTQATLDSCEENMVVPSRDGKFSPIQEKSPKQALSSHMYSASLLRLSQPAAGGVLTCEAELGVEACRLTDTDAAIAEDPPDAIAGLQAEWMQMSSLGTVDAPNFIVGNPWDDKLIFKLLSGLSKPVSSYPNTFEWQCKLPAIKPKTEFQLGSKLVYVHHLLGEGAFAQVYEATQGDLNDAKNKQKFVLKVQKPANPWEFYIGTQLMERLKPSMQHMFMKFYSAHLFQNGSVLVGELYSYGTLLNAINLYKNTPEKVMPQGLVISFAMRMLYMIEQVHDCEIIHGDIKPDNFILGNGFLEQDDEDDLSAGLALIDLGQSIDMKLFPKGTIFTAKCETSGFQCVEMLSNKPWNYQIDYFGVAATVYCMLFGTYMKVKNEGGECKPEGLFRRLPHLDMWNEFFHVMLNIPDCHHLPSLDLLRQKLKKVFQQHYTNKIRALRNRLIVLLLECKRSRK
# UniProt O60566: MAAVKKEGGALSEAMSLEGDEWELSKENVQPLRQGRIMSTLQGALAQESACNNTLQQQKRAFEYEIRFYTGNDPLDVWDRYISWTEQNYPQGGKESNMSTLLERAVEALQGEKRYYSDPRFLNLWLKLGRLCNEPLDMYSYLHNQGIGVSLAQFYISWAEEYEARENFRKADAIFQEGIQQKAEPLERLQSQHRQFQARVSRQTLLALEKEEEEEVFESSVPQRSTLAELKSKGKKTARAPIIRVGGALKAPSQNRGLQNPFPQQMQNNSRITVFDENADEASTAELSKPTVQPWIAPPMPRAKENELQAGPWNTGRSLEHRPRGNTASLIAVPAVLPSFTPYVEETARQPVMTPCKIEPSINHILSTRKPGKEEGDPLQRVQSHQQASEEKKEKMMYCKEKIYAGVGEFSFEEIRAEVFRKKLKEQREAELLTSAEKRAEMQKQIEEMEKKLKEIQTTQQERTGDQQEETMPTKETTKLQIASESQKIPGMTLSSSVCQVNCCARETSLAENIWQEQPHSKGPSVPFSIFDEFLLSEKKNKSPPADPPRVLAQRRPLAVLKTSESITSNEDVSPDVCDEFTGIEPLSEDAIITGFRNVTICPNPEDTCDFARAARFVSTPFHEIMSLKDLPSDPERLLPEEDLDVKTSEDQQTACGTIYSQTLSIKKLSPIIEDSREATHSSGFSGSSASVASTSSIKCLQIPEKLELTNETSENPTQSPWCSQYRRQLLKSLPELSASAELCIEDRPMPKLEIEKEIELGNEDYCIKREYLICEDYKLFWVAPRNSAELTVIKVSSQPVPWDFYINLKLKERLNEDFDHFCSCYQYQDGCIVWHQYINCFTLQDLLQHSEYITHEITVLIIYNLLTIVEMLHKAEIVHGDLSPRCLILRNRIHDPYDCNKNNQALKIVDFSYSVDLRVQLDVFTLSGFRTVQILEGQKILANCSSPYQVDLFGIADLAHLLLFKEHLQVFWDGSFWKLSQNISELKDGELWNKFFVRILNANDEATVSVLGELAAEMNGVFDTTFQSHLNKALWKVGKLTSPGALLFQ
# Legend:
# [1] = target: BUB1^FL/BUB3 complex (UniProt O43683); assay: SEC; analytical SEC; BUB1/BUB3, BUBR1/BUB3, eGFP-CENP-E^2070-C and mCherry-CENP-F^2688-C all combined, each at 6 μM loading concentration; elution also monitored by fluorescence; both purified
# [2] = target: BUB1^FL/BUB3 complex (UniProt O43683); assay: SEC; analytical SEC; 4 μM BUB1 or BUBR1 constructs or BUB1/BUB3 or BUBR1/BUB3 complexes mixed with 16 μM CENP-E or CENP-F proteins in 30 μl; 4 °C; Superose 6 5/150 or Superdex 75 5/150; 50 mM Hepes pH 8.0, 100 mM NaCl, 5% glycerol, 0.5 mM TCEP; fractions by SDS-PAGE; both purified
Molecule,binding [1],binding [2]
BUBR1/BUB3 complex (from UniProt O60566 1-1050; O43684 1-328),binds,
"eGFP-CENP-E^2070-C (domain or fragment, human, UniProt Q02224 2070-2701, looked up, codon-optimized cDNA; N-terminal PreScission-cleavable His6-eGFP tag from the pLIB-eGFP vector; source: insect cells (baculovirus made in Sf9, Tnao38 infected), purified (HisTrap, Superose 6 SEC); not shown: eGFP, N-terminal, kept) RQNHQVKPEKRLLSDGQQHLTESLREKCSRIKELLKRYSEMDDHYECLNRLSLDLEKEIEFQKELSMRVKANLSLPYLQTKHIEKLFTANQRCSMEFHRIMKKLKYVLSYVTKIKEEQHESINKFEMDFIDEVEKQKELLIKIQHLQQDCDVPSRELRDLKLNQNMDLHIEEILKDFSESEFPSIKTEFQQVLSNRKEMTQFLEEWLNTRFDIEKLKNGIQKENDRICQVNNFFNNRIIAIMNESTEFEERSATISKEWEQDLKSLKEKNEKLFKNYQTLKTSLASGAQVNPTTQDNKNPHVTSRATQLTTEKIRELENSLHEAKESAMHKESKIIKMQKELEVTNDIIAKLQAKVHESNKCLEKTKETIQVLQDKVALGAKPYKEEIEDLKMKLVKIDLEKMKNAKEFEKEISATKATVEYQKEVIRLLRENLRRSQQAQDTSVISEHTDPQPSNKPLTCGGGSGIVQNTKALILKSEHIRLEKEISKLKQQNEQLIKQKNELLSNNQHLSNEVKTWKERTLKREAHKQVTCENSPKSPKVTGTASKKKQITPSQCKERNLQDPVPKESPKSCFFDSRSKSLPSPHPVRYFDNSSLGLCPEVQNAGAESVDSQPGPWHASSGKDVPECKTQ",,"no binding (tested: 16 μM CENP-E construct, 4 μM BUB1/BUB3)"
